# Results as given in patent publication US20190010458.
# The exact form of at least one protein or probe is not confirmed. Where a protein sequence is shown, tags need not be part of it.
# Biological target: T1, Etv2 (Mus musculus) (UniProt P41163)
# T1 sequence (limits assumed): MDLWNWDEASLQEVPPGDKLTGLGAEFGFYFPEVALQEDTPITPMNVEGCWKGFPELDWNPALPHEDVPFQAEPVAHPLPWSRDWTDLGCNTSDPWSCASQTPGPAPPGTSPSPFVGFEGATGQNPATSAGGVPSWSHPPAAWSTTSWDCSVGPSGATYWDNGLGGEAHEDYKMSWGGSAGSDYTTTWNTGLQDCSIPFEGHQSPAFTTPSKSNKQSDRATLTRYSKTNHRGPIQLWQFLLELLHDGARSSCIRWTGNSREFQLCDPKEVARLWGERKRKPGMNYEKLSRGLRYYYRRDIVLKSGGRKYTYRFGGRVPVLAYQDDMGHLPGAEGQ
# Experiment: EMSA
# Conditions: gel shift confirmed binding to oligo with Etv2 motif
sequence,measurement,value
GAATATAGGCAGGAAATTGACCAGAT (double strand) [miR-130a promoter Etv2 site oligo],binding result,binds
